Experimental data: PubChem BioAssay AID1259254 (NCATS, 2017)

Assay: 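Finding genes that stop cells copying their DNA twice in one cycle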 (primary screen)
System: human HCT116 colorectal cancer cells
Knock-down reagent: single siRNA against human genes
Time to read-out: 3 days
Read-out: 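Nuclei stained with Hoechst and imaged; cell-cycle phase assigned by DNA content; G2 share scaled per plate, non-targeting siRNA 0%, GMNN siRNA 100%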
Reading the numbers: G2 robust z-score: higher = more G2 cells, more excess DNA replication
Hit rule: 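Active siRNAs have a G2 robust z of 5 or more median absolute deviations over the median, which in these data means about 38% or higher of GMNN control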
Shown is an unselected part of about 59,000 reagents. About 1,550 of them (2.6%) were called active. 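G2 share is only a proxy for re-replication; each gene was hit by three separate siRNAs, and active genes were retested.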 Further read-outs or replicates are left out here. Not given: the amount of reagent.

G2 robust z-score, by gene and reagent
ANKRD11: SID160739120 0.394 inactive; SID160739122 1.73 inactive; SID160739123 2.83 inactive
MASTL: SID160752967 3.41 inactive; SID160752968 2.1 inactive; SID160752969 1.01 inactive
RPS27A: SID160716212 3.18 inactive; SID160716213 0.758 inactive; SID160733726 0.7 inactive
MAGED2: SID160729512 -0.797 inactive; SID160729513 1.38 inactive; SID160729514 0.106 inactive
EXOC1L: SID160769117 -0.0121 inactive; SID160769118 0.255 inactive; SID160769119 -0.133 inactive
GOLT1B: SID160739886 -0.613 inactive; SID160739887 -0.161 inactive; SID160739888 0.23 inactive

A run of entries from the list above, as a working copy:
G2 robust z-score, by gene and reagent
GOLT1B: SID160739887 -0.161 inactive; SID160739888 0.23 inactive

Additional reagents follow.
G2 robust z-score, by gene and reagent
LOC728868 (retired record): SID160772236 0.101 inactive; SID160772237 2.27 inactive; SID160772238 -0.593 inactive
LOC729291: SID160734509 -0.0631 inactive; SID160772616 -0.803 inactive; SID160772618 0.058 inactive
BCL2L14: SID160748845 -0.718 inactive; SID160748846 0.33 inactive; SID160748847 -0.17 inactive
WDR45B: SID160745003 0.256 inactive; SID160745004 0.575 inactive; SID160745005 0.51 inactive
